Results reported in patent publication US20210206866A1 (EUCURE BEIJING BIOPHARMA, published 2021).
Results are given in words; binding and its absence hold for the method and conditions named. Some entries that bind do so weakly or less than the wild type. For some assays here: Tags and fused reporters may be left off the sequences shown.

B1: 9H3-mHvKv-IgG1 (antibody, V domains shown)
VH: QVQLKQSGPGLVQPSQSLSITCTVSGFSLTSYGVLWVRQPPGKGLEWLGVIWSGGSTDYNAAFISRLSISKDNSKSQVFFKMNSLQADDTAIYYCAREEFGYWGQGTLVTVSA
VL: DIQMTQTTSSLSASLGDRVTISCRASQDINNYLNWYQQKPDGTVKLLIYYTSRLHSGVPSRFSGSGSGTDYSLTISNLEQEDIATYFCQQTNTLPWTFGGGTKLEIK
notes: Chimeric: mouse 9H3 variable domains with human IgG1 constant domains (CL, CH1, CH2, CH3); also called 9H3 chimeric antibody; chimeric anti-hOX40 antibody
B2: mouse anti-hOX40 antibody 07-9H3 (antibody, V domains shown)
VH: B1 VH
VL: B1 VL
notes: Mouse IgG purified from ascites fluid

Columns and labels:
[1] = target: T1, Human OX40 protein (hOX40-His) (human, UniProt P43489 29-214); experiment: SPR (Biacore T200); antibody captured on a Protein A chip, hOX40-His injected as analyte
T1 construct: Soluble analyte in the SPR assay; also called His-tagged human OX40; not shown: His tag
T1 sequence: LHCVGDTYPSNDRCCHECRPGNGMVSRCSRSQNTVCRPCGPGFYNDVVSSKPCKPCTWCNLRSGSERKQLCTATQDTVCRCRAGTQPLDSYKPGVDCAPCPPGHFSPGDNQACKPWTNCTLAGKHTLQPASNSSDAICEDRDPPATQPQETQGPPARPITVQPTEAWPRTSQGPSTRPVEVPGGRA

[2] = target: T2, rhesus macaque OX40 on transfected CHO cells (rhesus macaque); experiment: flow cytometry on CHO cells transfected with rhesus macaque OX40; antibody at 1 ug/ml
T2 sequence: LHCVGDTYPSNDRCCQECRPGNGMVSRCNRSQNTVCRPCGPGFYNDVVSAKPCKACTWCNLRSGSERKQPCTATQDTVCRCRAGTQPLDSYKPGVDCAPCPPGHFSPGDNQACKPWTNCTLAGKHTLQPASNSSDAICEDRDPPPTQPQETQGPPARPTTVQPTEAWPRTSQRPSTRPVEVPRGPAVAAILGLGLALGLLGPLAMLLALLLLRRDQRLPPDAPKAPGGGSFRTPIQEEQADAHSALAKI

Row | Binder | binding [1] | binding [2]
1 | B1 | binds | –
2 | B2 | – | binds
